The entries are a selection whose mix differs from that of the whole data set. At the low end of the ranking the order means little.
These sequences were tested against T1, FEV (UniProt Q99581) (assay: DAPPL (digital affinity profiling via proximity ligation, sequencing)). Conditions: 10 mM Tris-HCl pH 7.5, 50 mM NaCl, 1 mM DTT, 4% glycerol, room temperature, 30 min; GST-TFs on glutathione beads, 16-mer random dsDNA library, 0.1% …; high values mean tight binding; double strand, one strand shown; scale: fold enrichment (6-mer frequency, TF over GST control).
T1 sequence: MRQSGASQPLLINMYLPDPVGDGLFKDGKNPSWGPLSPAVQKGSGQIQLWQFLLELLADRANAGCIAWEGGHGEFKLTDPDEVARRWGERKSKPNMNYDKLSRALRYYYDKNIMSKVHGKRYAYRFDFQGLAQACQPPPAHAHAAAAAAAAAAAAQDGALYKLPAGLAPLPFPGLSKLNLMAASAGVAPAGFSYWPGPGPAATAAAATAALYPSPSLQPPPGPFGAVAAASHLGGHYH

Row | Sequence | binding signal
1 | TCTAGA | 0.976
2 | AATTCT | 1.29
3 | CTACGT | 1.28
4 | CCCCGA | 1.18
5 | ATCCCG | 1.35
6 | CGCTAA | 0.934
7 | ATCCTA | 1.32
8 | ATAACG | 0.98
9 | TGGGAT | 1.18
10 | GTTGAT | 0.995
11 | GGCATT | 1.04
12 | AGAAAA | 1
13 | ATTACC | 1.25
14 | TTCTAA | 1.18
15 | CACTAT | 1.21
16 | AGGATT | 0.933
17 | AAACTC | 1.18
18 | ACAGCT | 1.07
19 | ATGCGA | 1.17
20 | TGATGC | 1.44

Row | Sequence | binding signal
21 | AGCTTG | 0.845
22 | CTTCCC | 1.91
23 | GCGATA | 0.981
24 | AGCTGC | 1.15
25 | ATACAC | 1.24
26 | CCAGAA | 0.949
27 | TCTAAC | 1.23
28 | ATAAGT | 0.956
29 | TGATAC | 1.21
30 | GATCAT | 0.954
31 | ATTTTG | 1.15
32 | GTGGAT | 0.816
33 | TGTTGA | 1.07
34 | TACGGT | 0.997
35 | CCAGAT | 0.921
36 | GTTTAG | 0.793
37 | ATCTAT | 1.08
38 | CAAAGA | 0.938
39 | TCGGCT | 0.889

Each sequence was assayed against T2, ELF5 (UniProt Q9UKW6-2) in the same assay as above. Conditions: 10 mM Tris-HCl pH 7.5, 50 mM NaCl, 1 mM DTT, 4% glycerol, room temperature, 30 min; GST-TFs on glutathione beads, 16-mer random dsDNA library, 0.1% …; high values mean tight binding; double strand, one strand shown; scale: fold enrichment (6-mer frequency, TF over GST control).
T2 sequence: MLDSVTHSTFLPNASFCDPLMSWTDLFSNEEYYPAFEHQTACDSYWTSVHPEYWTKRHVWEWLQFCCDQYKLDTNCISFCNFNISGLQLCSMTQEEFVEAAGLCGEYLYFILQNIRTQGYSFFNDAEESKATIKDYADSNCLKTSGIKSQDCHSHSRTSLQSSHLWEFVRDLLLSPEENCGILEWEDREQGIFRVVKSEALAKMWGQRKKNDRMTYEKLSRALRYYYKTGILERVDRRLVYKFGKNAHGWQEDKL

Row | Sequence | binding signal
40 | TCTAGA | 0.929
41 | AATTCT | 1.22
42 | CTACGT | 1.27
43 | ATCCCG | 1.7
44 | CGCTAA | 0.912
45 | ATAACG | 0.995
46 | GGCATT | 0.959
47 | ATTACC | 1.32
48 | AGGATT | 0.969
49 | AGCTTG | 0.884
50 | CTTCCC | 3.61
51 | CCAGAA | 0.968
52 | ATAAGT | 0.99
53 | GATCAT | 0.92
54 | GTGGAT | 0.946
55 | CCAGAT | 0.889
56 | GTTTAG | 0.798
57 | CAAAGA | 0.865
58 | TCGGCT | 0.892

Source: article PMC7862700
